PubChem BioAssay AID652243 – Drosophila RNAi Screening Center, 2013
Aim: 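Fly regulators of androgen-dependent reporter output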 (primary screen). System: Drosophila S2R+ cells. Reagent: long dsRNA against Drosophila genes. Timing: 72 h (48 h, then 24 h hormone). Challenge: synthetic androgen R1881 at 10 nM for 24 h. Measurement: 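Firefly light from an androgen-responsive reporter and Renilla control light per well, raw and unnormalised, for each of two replicates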. Reading the numbers: firefly reporter light: higher = more light from androgen-responsive reporter; Renilla control light: higher = more constitutive control signal (cell number, transfection). Active means: 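Hit when the log firefly-to-Renilla ratio dropped or increased by a fixed fold versus the mean of GFP or LacZ controls across duplicate plates; lowering cut given as 1.5 and as 3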. Calls: active = hit: reporter lowered or raised; inactive = no hit.
The deposit covers about 24,000 reagents; below is an unselected part of those that have a named target and a result. Over the whole deposit, 246 (1%) are marked active. 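Plates not normalised; calls are printed but the firefly/Renilla ratio behind them is not deposited; fold cut for lowering reported inconsistently.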 Raw values are not corrected between plates. Not stated in the record: the amount of reagent.

| gene | DRSC id | firefly reporter light, replicate 1 | firefly reporter light, replicate 2 | Renilla control light, replicate 1 | Renilla control light, replicate 2 | Call |
| --- | --- | --- | --- | --- | --- | --- |
| brk | DRSC23036 | 7.39e5 | 1.03e6 | 1.63e6 | 1.98e6 | inactive |
| brk | DRSC27320 | 3.75e5 | 2.92e5 | 7.64e5 | 7.19e5 | inactive |
| BthD | DRSC19395 | 5.03e5 | 6.31e5 | 2.45e6 | 2.69e6 | inactive |
| BthD | DRSC25871 | 4.58e5 | 5.26e5 | 8.29e5 | 7.19e5 | inactive |
| CG32196 | DRSC09548 | 2.77e5 | 2.51e5 | 7.10e5 | 6.22e5 | inactive |
| HPS1 | DRSC06195 | 9.81e5 | 1.46e6 | 1.92e6 | 2.04e6 | inactive |
| TwdlG | DRSC12229 | 44382 | 55616 | 1.41e6 | 1.48e6 | inactive |
| TwdlG | DRSC27678 | 1.53e5 | 1.65e5 | 4.84e5 | 7.07e5 | inactive |
| siz | DRSC11622 | 2.05e5 | 1.56e5 | 1.95e6 | 2.08e6 | inactive |
| siz | DRSC11690 | 5.67e5 | 5.42e5 | 1.81e6 | 1.92e6 | inactive |
| siz | DRSC27379 | 2.67e5 | 2.71e5 | 4.59e5 | 4.31e5 | inactive |
| Rab9Fb | DRSC19854 | 6.82e5 | 4.40e5 | 4.53e6 | 4.82e6 | inactive |
| CG7202 | DRSC11818 | 2.93e5 | 2.49e5 | 3.00e6 | 3.35e6 | inactive |
| CG7202 | DRSC25884 | 3.56e5 | 4.01e5 | 9.57e5 | 9.64e5 | inactive |
| Gr68a | DRSC10803 | 2.37e5 | 2.50e5 | 2.53e6 | 2.35e6 | inactive |
| Abd-B | DRSC14098 | 1.93e5 | 2.14e5 | 2.04e6 | 2.44e6 | inactive |
| Abd-B | DRSC14337 | 1.58e5 | 1.29e5 | 1.91e6 | 1.53e6 | inactive |
| Abd-B | DRSC28796 | 2.92e5 | 3.11e5 | 9.03e5 | 9.66e5 | inactive |
| CG5376 | DRSC15782 | 2.05e5 | 2.44e5 | 3.09e6 | 3.22e6 | inactive |
| CG5376 | DRSC29433 | 6.88e5 | 7.24e5 | 9.10e5 | 9.10e5 | inactive |
| Pfdn5 | DRSC16183 | 1.16e5 | 87305 | 1.09e6 | 1.03e6 | inactive |
| mas | DRSC08720 | 1.09e6 | 8.00e5 | 2.38e6 | 2.18e6 | inactive |
| mas | DRSC28905 | 4.14e5 | 3.82e5 | 8.99e5 | 9.74e5 | inactive |
| laf | DRSC12246 | 1.09e5 | 1.05e5 | 1.67e6 | 1.61e6 | inactive |
| rtet | DRSC14160 | 1.20e5 | 67867 | 1.06e6 | 1.16e6 | inactive |
| Mrp4 | DRSC14931 | 1.64e5 | 1.66e5 | 2.63e6 | 2.52e6 | inactive |
| Mrp4 | DRSC28151 | 4.84e5 | 3.71e5 | 1.50e6 | 1.22e6 | inactive |
| ppk15 | DRSC14733 | 1.28e5 | 2.46e5 | 1.33e6 | 2.06e6 | inactive |
| ppk15 | DRSC27947 | 9.95e5 | 4.23e5 | 2.30e6 | 1.01e6 | inactive |
| CG10171 | DRSC09711 | 5.81e5 | 6.42e5 | 1.00e6 | 9.21e5 | inactive |
| CG10171 | DRSC26279 | 3.40e5 | 2.90e5 | 5.06e5 | 3.38e5 | inactive |
| CG31418 | DRSC21780 | 5.34e5 | 4.34e5 | 1.95e6 | 1.90e6 | inactive |
| CG31418 | DRSC26160 | 2.86e5 | 2.62e5 | 6.61e5 | 6.41e5 | inactive |
| CG9500 | DRSC03237 | 1.02e5 | 1.77e5 | 1.62e6 | 1.42e6 | inactive |
| CanA-14F | DRSC23296 | 9.59e5 | 8.17e5 | 1.23e6 | 9.56e5 | inactive |
| Src64B | DRSC08700 | 1.07e5 | 90047 | 1.09e6 | 1.78e6 | inactive |
| Src64B | DRSC36619 | 6.63e5 | 7.39e5 | 1.51e6 | 1.17e6 | inactive |
| Src64B | DRSC36620 | – | – | – | – | inactive |
| BomBc2 | DRSC06502 | 56132 | 99778 | 8.68e5 | 8.68e5 | inactive |
| BomBc2 | DRSC29859 | 1.24e6 | 1.13e6 | 1.78e6 | 2.02e6 | inactive |
| Eo | DRSC20187 | 1.77e5 | 1.95e5 | 2.72e6 | 2.60e6 | inactive |
| Eo | DRSC26129 | 3.19e5 | 2.92e5 | 7.52e5 | 8.65e5 | inactive |
| CG11178 | DRSC19396 | 68890 | 66610 | 7.69e5 | 6.69e5 | inactive |
| gsb-n | DRSC04021 | 1.68e5 | 2.08e5 | 3.35e5 | 4.96e5 | inactive |
| gsb-n | DRSC04693 | 3.44e5 | 3.92e5 | 2.09e6 | 2.06e6 | inactive |
| CG10466 | DRSC02060 | 1.97e5 | 1.83e5 | 2.05e6 | 2.32e6 | inactive |
| comm | DRSC11336 | 1.58e5 | 1.02e5 | 1.71e6 | 1.31e6 | inactive |
| comm | DRSC24259 | 4.04e5 | 2.93e5 | 6.77e5 | 4.75e5 | inactive |
| Rab1 | DRSC16808 | 3.36e5 | 4.68e5 | 3.15e6 | 3.56e6 | inactive |
| Rab1 | DRSC29851 | 8.25e5 | 6.33e5 | 1.18e6 | 1.37e6 | inactive |
| spartin | DRSC12187 | 1.23e5 | 1.02e5 | 2.95e6 | 2.65e6 | inactive |
| spartin | DRSC27182 | 3.59e5 | 2.73e5 | 4.87e5 | 5.01e5 | inactive |
| Anp | DRSC14112 | 4.06e5 | 3.96e5 | 2.66e6 | 3.42e6 | inactive |
| CG2698 | DRSC15447 | 1.50e5 | 1.40e5 | 3.35e6 | 2.29e6 | inactive |
| CG34370 | DRSC03913 | 2.63e5 | 2.34e5 | 3.09e5 | 4.46e5 | inactive |
| CG34370 | DRSC04142 | 1.75e5 | 2.24e5 | 1.43e6 | 1.68e6 | inactive |
| CG34370 | DRSC04143 | 3.76e5 | 2.98e5 | 2.01e6 | 1.51e6 | inactive |
| CG34370 | DRSC04144 | 1.88e5 | 2.95e5 | 1.57e6 | 1.30e6 | inactive |
| CG34370 | DRSC26263 | 4.77e5 | 5.56e5 | 5.04e5 | 5.62e5 | inactive |
| CG34370 | DRSC37760 | 9.32e5 | 1.07e6 | 1.76e6 | 1.87e6 | inactive |

In a second layout: entries from further up.
{"gene": "CG31418", "DRSC id": "DRSC26160", "firefly reporter light, replicate 1": 2.86e5, "firefly reporter light, replicate 2": 2.62e5, "Renilla control light, replicate 1": 6.61e5, "Renilla control light, replicate 2": 6.41e5, "Call": "inactive"}
{"gene": "CG9500", "DRSC id": "DRSC03237", "firefly reporter light, replicate 1": 1.02e5, "firefly reporter light, replicate 2": 1.77e5, "Renilla control light, replicate 1": 1.62e6, "Renilla control light, replicate 2": 1.42e6, "Call": "inactive"}
{"gene": "CanA-14F", "DRSC id": "DRSC23296", "firefly reporter light, replicate 1": 9.59e5, "firefly reporter light, replicate 2": 8.17e5, "Renilla control light, replicate 1": 1.23e6, "Renilla control light, replicate 2": 9.56e5, "Call": "inactive"}
{"gene": "Src64B", "DRSC id": "DRSC08700", "firefly reporter light, replicate 1": 1.07e5, "firefly reporter light, replicate 2": 90047, "Renilla control light, replicate 1": 1.09e6, "Renilla control light, replicate 2": 1.78e6, "Call": "inactive"}
{"gene": "Src64B", "DRSC id": "DRSC36619", "firefly reporter light, replicate 1": 6.63e5, "firefly reporter light, replicate 2": 7.39e5, "Renilla control light, replicate 1": 1.51e6, "Renilla control light, replicate 2": 1.17e6, "Call": "inactive"}
{"gene": "Src64B", "DRSC id": "DRSC36620", "Call": "inactive"}
{"gene": "BomBc2", "DRSC id": "DRSC06502", "firefly reporter light, replicate 1": 56132, "firefly reporter light, replicate 2": 99778, "Renilla control light, replicate 1": 8.68e5, "Renilla control light, replicate 2": 8.68e5, "Call": "inactive"}
{"gene": "BomBc2", "DRSC id": "DRSC29859", "firefly reporter light, replicate 1": 1.24e6, "firefly reporter light, replicate 2": 1.13e6, "Renilla control light, replicate 1": 1.78e6, "Renilla control light, replicate 2": 2.02e6, "Call": "inactive"}
{"gene": "Eo", "DRSC id": "DRSC20187", "firefly reporter light, replicate 1": 1.77e5, "firefly reporter light, replicate 2": 1.95e5, "Renilla control light, replicate 1": 2.72e6, "Renilla control light, replicate 2": 2.60e6, "Call": "inactive"}
{"gene": "Eo", "DRSC id": "DRSC26129", "firefly reporter light, replicate 1": 3.19e5, "firefly reporter light, replicate 2": 2.92e5, "Renilla control light, replicate 1": 7.52e5, "Renilla control light, replicate 2": 8.65e5, "Call": "inactive"}
